In PubChem BioAssay AID2685 (National Center for Advancing Translational Sciences (NCATS), 2010) one finds cell number change and AC50 data, which are given here for 62 compounds.

This is one part of the list. These are further read-outs of the screen, such as a control signal, another cell line or another target. No call is given for them. The list favours compounds with an active or inconclusive main result. Words in brackets tell the shape of the fitted curve; partial curves, single points and poor fits give uncertain potencies.

The test is described as follows: qHTS Assay for Lipid Storage Modulators in Drosophila S3 Cells.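 On cell number change: cells counted by Cell Tracker Red CMTPX staining in the red channel.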 As to conditions: BODIPY lipid droplet fluorescence, 18-24 h; for cell number change: measured here: cell count max response, cells fed with added oleic acid. Put shortly:
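Laser-scanning cytometry quantifies lipid droplet accumulation (500–530 nm total intensity; droplet/cell object ratio) in oleic acid-fed (400 uM added) Drosophila S3 cells treated with a concentration series. 20 uM Triacsin C defined 100% inhibition.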
A general note: In qHTS, concentration-response curves come from the screen itself.

[1] abbreviates: measured here: lipid fluorescence (Fed channel) AC50, cells fed with added oleic acid.
Where [2] appears, read: measured here: cell number channel AC50, cells fed with added oleic acid.

Consider `CCOC(=O)c1nc(Nc2cc(C)cc(C)c2)c2ccccc2n1`, for which the cell number change was 16.2%. Also, the AC50 under setting [1] is 1.46 µM [rising, full curve, poor fit].
Turning to `CC(=O)c1ccc(NC(=O)C2(S(=O)(=O)c3ccccc3)CC2)cc1`, the cell number change is -28.2%.
`Cc1ccc(NC(=O)COC(=O)CCCC2=NS(=O)(=O)c3ccccc3N2)cc1C`: the AC50 under setting [1] was 10.3 µM [rising, partial curve, poor fit].
As to `Cc1cccc(C(=O)NC2CCN(S(=O)(=O)c3ccccc3F)CC2)c1`, the cell number change is -44.6%. Under setting [2], the AC50 was 8.2 µM [falling, partial curve]. Further, the concentration at half-maximal activity (AC50) under setting [1] was 29.1 µM [falling, single point].
For the compound `Cc1cc(C)n(S(=O)(=O)c2ccc3oc(=O)ccc3c2)n1`, the cell number change is -11.4%.
The same measure, in the same setting: under `CCCC(=O)Nc1ccc(S(=O)(=O)Nc2cc(C)nc(C)n2)cc1` stands -4.84%.
Consider `CC1CCC(NC(=O)c2ccc(CNc3c(NC4CCCCC4)c(=O)c3=O)cc2)CC1` (stereo unspecified), for which the cell number change is -30.7%. Further, the AC50 under setting [2] is 16.4 µM [falling, single point].
With `N=c1n(CC(=O)O)c2ccccc2n1Cc1ccccc1Cl`, the cell number change was 2.62%. Besides, under setting [1], the AC50 was 0.461 µM [falling, full curve].
For the compound `CC1C/C(=N\NC(=S)NC(C)C)CC(C)(C)C1` (stereo unspecified), the cell number change was found to be 40.9%. Besides, the AC50 under setting [2] is 0.92 µM [rising, full curve]. Besides, under setting [1], the AC50 was 1.3 µM [rising, partial curve].
In the case of `CCNC(=S)N(Cc1ccco1)Cc1cc2cc(OCC)ccc2[nH]c1=O`, the cell number change was -43.7%. Under setting [2], the AC50 was 23.1 µM [falling, single point]. The AC50 under setting [1] is 20.6 µM [falling, single point].
Take `O=[N+]([O-])c1ccc(CSc2ccc(-c3ccccn3)nn2)cc1`: the cell number change turned out to be 4.46%.
As to `COc1ccccc1CC(=O)N1CCN(S(=O)(=O)c2ccccc2)CC1`, the cell number change was 21%. The AC50 under setting [1] is 0.13 µM [falling, full curve, poor fit].
On to `Cc1ccc(-n2c(-c3ccncc3)nnc2-c2ccco2)cc1`, for which the cell number change was determined as 1.8%. The half-maximal activity concentration (AC50) under setting [1] was 1.16 µM [rising, full curve].
On to `Cc1cc(C)c(S(=O)(=O)n2ccc(-c3ccc(OCCN(C)c4ccccn4)cc3)n2)c(C)c1`, for which the cell number change amounted to 25.9%. The AC50 under setting [1] is 32.6 µM [rising, partial curve, poor fit].
As to `CCOC(=O)c1cc(=O)n2[nH]c(-c3ccc(C)cc3)cc2n1`, the cell number change is -23%. Further, under setting [1], the AC50 is 29.1 µM [falling, single point].
For `O=C(NCC1CCCO1)c1ccc2c(=O)n(Cc3cccc(Br)c3)c(=S)[nH]c2c1` (stereo unspecified), the AC50 under setting [2] is 5.8 µM [rising, partial curve, poor fit].
As to `COc1ccc(Cn2nnnc2C(c2cccs2)N2CCOCC2)cc1` (stereo unspecified), the cell number change amounted to 3.55%. Under setting [1], the AC50 was 1.16 µM [rising, single point].
Consider `Cn1cc(/C=N/NC(=O)COc2ccccc2[N+](=O)[O-])c2ccccc21`, for which the cell number change was 11.3%.
`Cc1ccc(OCC(=O)NNC(=O)Cn2nnc(-c3ccccc3)n2)cc1`: the cell number change was -9.86%. Also, under setting [1], the AC50 is 0.517 µM [falling, partial curve, poor fit].
Turning to `CSCCC(C(=O)NC1=NCCS1)N1C(=O)c2ccccc2C1=O` (stereo unspecified), the cell number change came to 4.87%.
In the case of `CC(C)C(=O)NC(=S)/C=C1/N(C)c2ccccc2C1(C)C`, the cell number change is -50.3%.
Take `Cc1cccn2c(=O)c3cc(C(=O)N4CC(C)CC(C)C4)sc3nc12` (stereo unspecified): the cell number change is -13.5%. Also, the AC50 under setting [1] was 29.1 µM [rising, single point].
Consider `COc1ccc2c(c1)-c1c(sn(-c3ccc(OC)c(OC)c3)c1=S)C(C)(C)N2`, for which the cell number change is -64.5%. Under setting [1], the AC50 was 16.4 µM [falling, partial curve].
On to `Cc1ccc(NC(=O)c2cc(N3C(=O)C=CC3=O)ccc2N2CCOCC2)cc1Cl`, for which the cell number change was -36.1%. Besides, the concentration at half-maximal activity (AC50) under setting [2] is 9.2 µM [falling, partial curve]. Under setting [1], the AC50 was 29.1 µM [falling, partial curve, poor fit].
In the case of `O=C(CSc1nnc(-c2cccs2)n1CC1CCCO1)c1cc2ccccc2o1` (stereo unspecified), the cell number change amounted to 4.58%. Moreover, under setting [1], the AC50 is 25.9 µM [rising, single point].
On to `COc1cccc(OC)c1C(=O)Nc1ccccc1N1CCCCC1`, for which the cell number change is -32.8%. The AC50 under setting [2] is 16.4 µM [falling, single point]. Also, the concentration at half-maximal activity (AC50) under setting [1] is 16.4 µM [falling, single point].
As for `COC(=O)c1cccc(C23CC4(C2)[C@H](CN(Cc2cccnc2)[C@@H]4c2ccccc2)C3c2ccccc2)c1` (stereo partly specified), the cell number change was -34.9%. Further, the AC50 under setting [2] was 32.6 µM [falling, single point]. Besides, the half-maximal activity concentration (AC50) under setting [1] is 4.61 µM [falling, single point].
As to `CC1CCCCN1CC(=O)Nc1cc(S(=O)(=O)N2CCOCC2)ccc1N1CCCC1` (stereo unspecified), the cell number change is -81.7%. For the same compound, the AC50 under setting [2] was 9.2 µM [falling, partial curve, poor fit].
As to `O=C(Cn1c(=O)cnc2ccccc21)NCC(=O)Nc1ccc(F)c(F)c1`, under setting [1], the AC50 is 3.26 µM [falling, partial curve, poor fit].
For `COc1ccc(C(=O)NCc2nnc(SCC(=O)c3ccccc3)n2C)cc1`, the cell number change was 118%. Besides, the AC50 under setting [2] was 32.6 µM [rising, partial curve]. Also, the half-maximal activity concentration (AC50) under setting [1] is 6.51 µM [rising, single point].
Take `CC(C)(C)NC(=O)c1oc2ccccc2c1COc1ccccc1`: the cell number change came out at 8.6%. Also, under setting [1], the AC50 was 20.6 µM [falling, single point].
Take `CC(C)CC(=O)Nc1nnc(CCc2ccccc2)s1`: the cell number change is 8.42%.
Regarding `COc1ccc(C2(c3ccc(OC)cc3)NC(=O)N(CC(=O)Nc3ccc(OC(F)F)cc3)C2=O)cc1`, the cell number change is -3.98%. Also, the AC50 under setting [1] was 2.31 µM [rising, single point].
For the compound `CC(C)CNC(=O)c1ccc(Cl)c(NC(=O)COc2ccccc2)c1`, the cell number change came out at 10.5%.
With `O=[N+]([O-])c1cc(S(=O)(=O)Nc2cccc(Cl)c2)ccc1N/N=C/c1ccc(N2CCOCC2)cc1`, the cell number change was -32.9%. For the same compound, the AC50 under setting [2] was 4.61 µM [falling, partial curve]. Moreover, the AC50 under setting [1] was 0.366 µM [falling, full curve].
`COC(=O)C1C(=O)C2=C(CC1C)NC(C)=C(C(=O)OC(C)C)C2c1ccc(C)o1` (stereo unspecified): the AC50 under setting [1] was 6.51 µM [rising, single point].
For `CC(C)OC(=O)c1c(NC(=O)Cn2cnc([N+](=O)[O-])n2)sc2c1CCCC2`, the cell number change was 127%. Moreover, the AC50 under setting [2] is 0.103 µM [rising, full curve, poor fit]. The AC50 under setting [1] was 0.092 µM [rising, full curve, poor fit].
Consider `O=C(NCc1ccccc1)c1nnc(CS(=O)(=O)c2ccccc2)o1`, for which the cell number change stood at 28.8%. The concentration at half-maximal activity (AC50) under setting [1] is 0.58 µM [falling, single point].
In the case of `COc1cccc(Nc2ncnc3c2cnn3C)c1`, the cell number change is -8.41%.
`O=C(Cn1nnc(-c2ccccc2NC(=O)c2ccco2)n1)NC1CCCCC1`: the cell number change was 9.44%.
Regarding `CCOc1ccc(OCCSc2nc3ccccc3[nH]2)cc1`, the cell number change was -22.5%. Moreover, under setting [1], the AC50 was 20.6 µM [falling, single point].
Take `COC(=O)c1ccc(CN2C(=O)NC(CC(C)C)C2=O)cc1` (stereo unspecified): the cell number change amounted to 1.24%. For the same compound, the half-maximal activity concentration (AC50) under setting [2] is 0.0651 µM [rising, full curve, poor fit]. In addition, the concentration at half-maximal activity (AC50) under setting [1] was 0.092 µM [rising, full curve, poor fit].
`CS(=O)(=O)N1CCCC(C(=O)NCc2ccccc2Cl)C1` (stereo unspecified): the cell number change is -160%. For the same compound, the AC50 under setting [2] is 29.1 µM [falling, partial curve]. In addition, the AC50 under setting [1] is 0.206 µM [falling, full curve, poor fit].
Regarding `Cc1nc2ccccc2cc1OCc1ccccc1`, the cell number change is -24.3%. In addition, under setting [1], the half-maximal activity concentration (AC50) was 20.6 µM [falling, single point].
On to `Cc1cc(C)nc(/N=C2\NC(=O)CC(C(=O)O)N2c2ccc(Cl)cc2Cl)n1` (stereo unspecified), for which the cell number change is -8%. Also, under setting [2], the AC50 was 4.61 µM [falling, single point].
Regarding `Cc1ccc(C2=NN(C(=O)CN3C(=O)c4ccccc4S3(=O)=O)C(c3ccco3)C2)cc1` (stereo unspecified), the cell number change was found to be 16.7%. Besides, the AC50 under setting [1] is 16.4 µM [rising, single point].
Take `O=C(Cn1cnc2cc(Cl)ccc2c1=O)Nc1ccc2c(c1)OCO2`: the cell number change is -4.9%. In addition, under setting [1], the AC50 is 6.51 µM [rising, single point].
Turning to `O=C(CCCOc1ccccc1)N1CCCCC1`, the cell number change was determined as 1.19%.
On to `CCCOc1ccc(CC(=O)NCCc2ccccc2)cc1OC`, for which the cell number change turned out to be 20.5%.
For `CCC1(C)CC(=O)N(c2ccc(F)c(Cl)c2)C(=O)C1`, the cell number change was determined as 1.39%. Also, the AC50 under setting [1] is 20.6 µM [falling, partial curve, poor fit].
On to `O=S(=O)(NCc1ccco1)c1ccc2ccccc2c1`, for which the cell number change was 32.1%.
As to `COc1ccc(-n2c(=O)c(CCC(=O)N3CCC(C)CC3)nc3ccccc32)cc1`, the cell number change turned out to be 9.94%. Further, the AC50 under setting [1] is 1.16 µM [falling, full curve, poor fit].
Take `COc1ccc(OC)c(NC(=O)CSc2nnc(N)s2)c1`: the cell number change stood at 7.41%. The AC50 under setting [1] is 2.31 µM [rising, full curve].
As for `CC(C)C(OC(=O)c1cccs1)C(=O)NCc1ccco1` (stereo unspecified), the cell number change was -19.2%. Also, the AC50 under setting [1] is 2.31 µM [falling, single point].
Regarding `COc1ccc(-c2ccnc3c(Br)c(C)nn23)cc1`, the cell number change was -15.3%. For the same compound, the AC50 under setting [1] is 29.1 µM [falling, single point].
With `Cc1ccc(C(C)C)cc1OCC(=O)Nc1ccc(N2CCCCC2)cc1`, the cell number change was found to be 57%. The AC50 under setting [2] is 29.1 µM [rising, single point].
For the compound `O=C(CSc1ncn[nH]1)c1ccc2c(c1)OCCO2`, the cell number change was -128%. Moreover, the AC50 under setting [2] was 20.6 µM [falling, partial curve, poor fit].
For the compound `Cc1ccc(COC(=O)c2ccc3ccccc3n2)cc1`, the cell number change worked out at 8.26%. The concentration at half-maximal activity (AC50) under setting [1] is 6.51 µM [rising, single point].
For `Cc1nc(NCCCn2ccnc2)c2oc3ccccc3c2n1`, the cell number change was -8.42%.
Consider `CCOc1ccc(NC(=O)c2ccccc2CO)cc1`, for which the cell number change came to 9.69%. Also, the AC50 under setting [1] was 0.206 µM [rising, partial curve, poor fit].
Take `Cn1c(N)c(C(=O)c2ccc(Cl)cc2)c(=O)n(C)c1=O`: the cell number change is 14.4%. Further, the AC50 under setting [1] was 11.6 µM [rising, partial curve, poor fit].
Turning to `Cc1ccc(C(=O)Nc2cccc([N+](=O)[O-])c2)cc1S(=O)(=O)Nc1ccc(NC(=O)c2ccccc2)cc1`, the cell number change came to 17.7%. Also, the AC50 under setting [1] is 0.146 µM [rising, full curve, poor fit].

As usually defined, the AC50 is the concentration at which the activity in the assay is half-maximal. A higher AC50 goes with weaker potency.
